Measurements reported in PubChem BioAssay AID1259308 (NCATS, 2017)

Test: 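Candidate targets for better recombinant protein yield in mammalian cells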 (primary screen)
Cell system: human HEK293 embryonic kidney cells stably expressing firefly luciferase (HEK-CMV-Luc2-Hygro)
Reagents: single siRNA against human genes, 0.8 pmol siRNA per well
Timing: 72 h
Read-out: 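Luciferase light (ONE-Glo) measured on one replicate plate set and viability (CellTiter-Glo) on the other, scaled to a negative control siRNA, with robust z-scores and luciferase per cell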
Reading the numbers: total luciferase, z-score and total luciferase, % of control: higher = more reporter protein produced; luciferase per cell, z-score: higher = more reporter output per viable cell; viable cells, % of control: higher = more viable cells
Rule for the call: 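An siRNA counts as active if its total luciferase robust z-score exceeds 3; genes with two or more such siRNAs out of three were retested with fresh siRNAs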
Calls: active = raised luciferase; inactive = no rise
Here is an unselected part of about 59,000 deposited reagents. About 1,510 of all reagents (2.6%) count as active. 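Calls use total luciferase alone and ignore viability, so some active siRNAs may act by altering cell number.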 Reagents against one gene are numbered here.

| Gene | reagent no. | total luciferase, z-score | total luciferase, % of control | luciferase per cell, z-score | viable cells, % of control | Outcome |
| --- | --- | --- | --- | --- | --- | --- |
| MEMO1 | 1 | -0.154 | 78.8 | -0.85 | 110 | inactive |
| MEMO1 | 2 | -0.296 | 76 | -0.846 | 106 | inactive |
| MEMO1 | 3 | 0.0293 | 82.5 | 0.503 | 80.7 | inactive |
| GATA6 | 1 | 0.47 | 91.2 | 0.626 | 86.5 | inactive |
| GATA6 | 2 | -0.861 | 64.8 | -0.183 | 75.9 | inactive |
| GATA6 | 3 | 4.45 | 170 | 3.24 | 81.1 | active |
| GAS6 | 1 | -0.614 | 69.7 | -1 | 101 | inactive |
| GAS6 | 2 | 1.89 | 119 | 2.27 | 73.5 | inactive |
| GAS6 | 3 | 0.673 | 95.3 | -0.0991 | 109 | inactive |
| TAF13 | 1 | 0.202 | 85.9 | 1.58 | 63.4 | inactive |
| TAF13 | 2 | -0.363 | 74.7 | -0.529 | 95.9 | inactive |
| TAF13 | 3 | 0.419 | 90.2 | 0.0546 | 99.4 | inactive |
| CCDC6 | 1 | 0.804 | 97.9 | 0.818 | 88.2 | inactive |
| CCDC6 | 2 | 0.114 | 84.2 | 1.69 | 60.2 | inactive |
| CCDC6 | 3 | 1.14 | 104 | 1.53 | 77.9 | inactive |
| NSMCE1 | 1 | 0.446 | 90.8 | 0.579 | 87.1 | inactive |
| NSMCE1 | 2 | -0.67 | 68.6 | -1.03 | 101 | inactive |
| NSMCE1 | 3 | 0.634 | 94.5 | 0.105 | 103 | inactive |
| FAM111A | 1 | -0.0597 | 80.7 | -0.207 | 95.2 | inactive |
| FAM111A | 2 | -0.25 | 76.9 | -0.00874 | 86.1 | inactive |
| FAM111A | 3 | 0.201 | 85.9 | -0.117 | 99 | inactive |
| MAP7D3 | 1 | 0.0393 | 82.7 | -0.604 | 108 | inactive |
| MAP7D3 | 2 | 0.322 | 88.3 | -0.0743 | 101 | inactive |
| MAP7D3 | 3 | -0.093 | 80 | 1.45 | 61.1 | inactive |
| ATPAF2 | 1 | 0.363 | 89.1 | 0.436 | 88.8 | inactive |
| ATPAF2 | 2 | -0.984 | 62.3 | -0.602 | 81.6 | inactive |
| ATPAF2 | 3 | -0.67 | 68.6 | -0.454 | 86.3 | inactive |
| ZP4 | 1 | 1.87 | 119 | 1.05 | 101 | inactive |
| ZP4 | 2 | 0.769 | 97.2 | 0.742 | 89.3 | inactive |
| ZP4 | 3 | 0.578 | 93.4 | 1.39 | 72.4 | inactive |
| GLT8D1 | 1 | 0.904 | 99.9 | 0.815 | 90 | inactive |
| GLT8D1 | 2 | -0.398 | 74 | -0.445 | 92.9 | inactive |
| GLT8D1 | 3 | -1.85 | 45 | -2.16 | 88.8 | inactive |
| EIF1AX | 1 | -2.87 | 24.8 | -3.67 | 72.7 | inactive |
| EIF1AX | 2 | -1.04 | 61.3 | -0.525 | 78.6 | inactive |
| EIF1AX | 3 | -1.73 | 47.5 | -1.94 | 88.5 | inactive |

Reagents listed so far marked active, once more:
| Gene | reagent no. | total luciferase, z-score | total luciferase, % of control | luciferase per cell, z-score | viable cells, % of control | Outcome |
| --- | --- | --- | --- | --- | --- | --- |
| GATA6 | 3 | 4.45 | 170 | 3.24 | 81.1 | active |

The results go on:
| Gene | reagent no. | total luciferase, z-score | total luciferase, % of control | luciferase per cell, z-score | viable cells, % of control | Outcome |
| --- | --- | --- | --- | --- | --- | --- |
| MICU3 | 1 | -0.54 | 71.2 | -0.348 | 87.1 | inactive |
| MICU3 | 2 | 0.526 | 92.3 | 0.716 | 85.5 | inactive |
| MICU3 | 3 | -0.306 | 75.8 | -0.653 | 101 | inactive |
| COMMD4 | 1 | 1.24 | 107 | 1.01 | 91.2 | inactive |
| COMMD4 | 2 | -0.811 | 65.8 | -0.878 | 92.6 | inactive |
| COMMD4 | 3 | 2.29 | 127 | 1.64 | 92.4 | inactive |
| LINC01191 | 1 | -0.837 | 65.2 | 0.507 | 63.8 | inactive |
| LINC01191 | 2 | -1.49 | 52.3 | 0.187 | 55.6 | inactive |
| LINC01191 | 3 | 0.966 | 101 | 1.31 | 80 | inactive |
| SNRPB2 | 1 | 2.32 | 128 | 1.56 | 94.8 | inactive |
| SNRPB2 | 2 | 0.857 | 98.9 | 0.829 | 88.9 | inactive |
| SNRPB2 | 3 | 0.31 | 88 | 0.652 | 82.9 | inactive |
| SDHAF1 | 1 | 0.19 | 85.7 | -0.757 | 117 | inactive |
| SDHAF1 | 2 | -0.527 | 71.4 | -0.528 | 91.7 | inactive |
| SDHAF1 | 3 | 1.07 | 103 | 0.86 | 92 | inactive |
| LOC387939 (retired record) | 1 | -2.32 | 35.7 | -2.32 | 73.5 | inactive |
| LOC387939 (retired record) | 2 | 0.349 | 88.8 | -0.259 | 106 | inactive |
| LOC387939 (retired record) | 3 | 0.0264 | 82.4 | 0.383 | 83.3 | inactive |
| SLC26A9 | 1 | -0.99 | 62.2 | -1.49 | 103 | inactive |
| SLC26A9 | 2 | 0.544 | 92.7 | 0.432 | 92.4 | inactive |
| SLC26A9 | 3 | 0.438 | 90.6 | 0.747 | 83.2 | inactive |
